Data as given in PubChem BioAssay AID1159593 (NIAID, 2016).

Assay: 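Knock-downs that alter LPS-induced nuclear entry of p65 in mouse macrophages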
Cell system: RAW264.7 macrophages of mouse, with reporters for p65 (GFP) and the Tnf promoter (mCherry)
Knock-down reagent: single siRNA against mouse genes
Timing: 48 to 72 hours after siRNA transfection, then LPS for 40 min
Challenge: LPS (Salmonella minnesota R595) for 40 min before fixation; dose not given
Detection: 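High-content imaging of GFP-p65 moving into nuclei after 40 min LPS, plate median/MAD normalised, replicate mean of robust z-score relative to negative controls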
Direction: p65 translocation z-score: higher = more nuclear NF-kappaB p65 after LPS
Call rule: 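Activity score grows with absolute z: 25 beyond 1, 50 beyond 1.5, 75 beyond 2, 100 beyond 2.5; active calls here sit at about z 1.5 or more either way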
Meaning of the calls: active = changed p65 translocation (either direction); inactive = no clear change
This is one part, drawn at random, of 756 deposited reagents. 137 of them (18%) count as active. 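Active means p65 translocation went either up or down; genes were judged on the median of six siRNAs, not single siRNAs.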 Not stated in the record: the amount of reagent.

Target gene | PubChem SID | p65 translocation z-score | Outcome
Tlr1 | SID303071194 | 0.744 | inactive
Tlr1 | SID303071195 | -0.0855 | inactive
Tlr1 | SID303071196 | 0.0575 | inactive
Tlr1 | SID303071197 | -0.559 | inactive
Tlr1 | SID303071198 | -1.35 | inactive
Tlr1 | SID303071199 | 0.153 | inactive
Cyld | SID303071908 | 0.654 | inactive
Cyld | SID303071909 | -0.878 | inactive
Cyld | SID303071910 | 0.273 | inactive
Cyld | SID303071911 | -0.352 | inactive
Cyld | SID303071912 | -0.577 | inactive
Cyld | SID303071913 | -0.134 | inactive
Jun | SID303071722 | -0.392 | inactive
Jun | SID303071723 | -2.73 | active
Jun | SID303071724 | -0.525 | inactive
Jun | SID303071725 | -2.04 | active
Jun | SID303071726 | -1.75 | active
Jun | SID303071727 | -0.199 | inactive
Rela | SID303071416 | -1.24 | inactive
Rela | SID303071417 | -1.01 | inactive
Rela | SID303071418 | 0.341 | inactive
Rela | SID303071419 | 2.38 | active
Rela | SID303071420 | -2.2 | active
Rela | SID303071421 | -0.814 | inactive
Tbkbp1 | SID303071608 | 0.238 | inactive
Tbkbp1 | SID303071609 | -0.599 | inactive
Tbkbp1 | SID303071610 | 0.972 | inactive
Tbkbp1 | SID303071611 | -0.305 | inactive
Tbkbp1 | SID303071612 | 1.27 | inactive
Tbkbp1 | SID303071613 | 0.32 | inactive
Ikbkb | SID303071380 | 0.867 | inactive
Ikbkb | SID303071381 | -1.12 | inactive
Ikbkb | SID303071382 | -1.64 | active
Ikbkb | SID303071383 | -0.935 | inactive
Ikbkb | SID303071384 | 0.146 | inactive
Ikbkb | SID303071385 | -0.136 | inactive
Tlr4 | SID303071212 | -0.302 | inactive
Tlr4 | SID303071213 | -2.06 | active
Tlr4 | SID303071214 | -3.15 | active
Tlr4 | SID303071215 | -3.36 | active
Tlr4 | SID303071216 | -1.54 | active
Tlr4 | SID303071217 | -4.14 | active
Map3k8 | SID303071434 | 0.111 | inactive
Map3k8 | SID303071435 | 0.181 | inactive
Map3k8 | SID303071436 | 0.386 | inactive
Map3k8 | SID303071437 | -0.636 | inactive
Map3k8 | SID303071438 | 0.206 | inactive
Map3k8 | SID303071439 | -0.373 | inactive
Tlr9 | SID303071242 | -1.19 | inactive
Tlr9 | SID303071243 | -0.77 | inactive
Tlr9 | SID303071244 | -0.293 | inactive
Tlr9 | SID303071245 | -0.739 | inactive
Tlr9 | SID303071246 | 0.541 | inactive
Tlr9 | SID303071247 | -0.164 | inactive
Irak1 | SID303071296 | -0.89 | inactive
Irak1 | SID303071297 | 0.232 | inactive
Irak1 | SID303071298 | -0.542 | inactive
Irak1 | SID303071299 | -1.09 | inactive
Irak1 | SID303071300 | 0.577 | inactive
Irak1 | SID303071301 | -0.175 | inactive
Mapk12 | SID303071530 | 0.165 | inactive
Mapk12 | SID303071531 | -0.507 | inactive
Mapk12 | SID303071532 | -0.799 | inactive
Mapk12 | SID303071533 | -0.498 | inactive
Mapk12 | SID303071534 | -0.776 | inactive
Mapk12 | SID303071535 | -0.555 | inactive
Nfkb2 | SID303071410 | 0.451 | inactive
Nfkb2 | SID303071411 | -0.373 | inactive
Nfkb2 | SID303071412 | 0.748 | inactive
Nfkb2 | SID303071413 | 0.918 | inactive
Nfkb2 | SID303071414 | -0.264 | inactive
Nfkb2 | SID303071415 | 2.17 | active
Irf9 | SID303071794 | -0.585 | inactive
Irf9 | SID303071795 | -1.4 | inactive
Irf9 | SID303071796 | 0.624 | inactive
Irf9 | SID303071797 | -0.21 | inactive
Irf9 | SID303071798 | 0.0307 | inactive
Irf9 | SID303071799 | -1.91 | active

In a second layout: entries from further up
Cyld [SID303071912]: p65 translocation z-score = -0.577; Outcome = inactive
Cyld [SID303071913]: p65 translocation z-score = -0.134; Outcome = inactive
Jun [SID303071722]: p65 translocation z-score = -0.392; Outcome = inactive
Jun [SID303071723]: p65 translocation z-score = -2.73; Outcome = active
Jun [SID303071724]: p65 translocation z-score = -0.525; Outcome = inactive
Jun [SID303071725]: p65 translocation z-score = -2.04; Outcome = active
Jun [SID303071726]: p65 translocation z-score = -1.75; Outcome = active
Jun [SID303071727]: p65 translocation z-score = -0.199; Outcome = inactive
Rela [SID303071416]: p65 translocation z-score = -1.24; Outcome = inactive
Rela [SID303071417]: p65 translocation z-score = -1.01; Outcome = inactive
